Part of at least one peptide drawing is inferred or uncertain, most often the ends. Square brackets hold non-standard residues; d marks the D form. Peptide text beside a SMILES is read from it. Nle = CCCC[C@H](N)C(=O)O
Tested on: rat pituitary cells in tissue culture
Experiment: Bioassay of hGRF analogs: GH release from cultured pituitary cells
Assay type: cell-based
Text: The assay for biological activity, which is based on the ability to stimulate release of growth hormone in rat pituitary cells in tissue culture, has been described in detail (Culler, M. D.; Kenjo, T.: Obara, N.; Arimuar, A., Stimulation of cAMP. Accumulation by Human Pancreatic GH-Releasing Factor-(1-44). Am. J. Physiol. 1984, 247 (Endocrinol.Metab.10), E609-E615.
ALLFIT, the 4-parameter logistic curve fitting program available from the Biomedical Computer Technology Information Center, Vanderbilt Medical Center, Nashville TN, was used to determine ED50 and maximal stimulated values from the data. In several instances, the amount of GH released reached a maximum value and decreased with further increasing doses of the hGRF analogs. To simplify the data analysis, these values were not used in the calculations. The calculated maximal responses, the doses of the analog required to release the amount of GH released at the ED50 of the standard (hGRF) and the potencies of the analogs relative to hGRF, are given in Table 2. Generally all novel analogs were fully active and were able to stimulate the release of growth hormone with maximal values of GH release being within 80% of the value for natural hGRF.

[1] = from curves generated by ALLFIT

CCCC[C@H](NC(=O)[C@@H](NC(=O)[C@H](CC(=O)O)NC(=O)[C@H](CCC(N)=O)NC(=O)[C@H](CC(C)C)NC(=O)[C@H](CC(C)C)NC(=O)[C@H](CCCCN)NC(=O)[C@H](CCCNC(=N)N)NC(=O)[C@H](C)NC(=O)[C@H](CO)NC(=O)[C@H](CC(C)C)NC(=O)[C@H](CCC(N)=O)NC(=O)CNC(=O)[C@H](CC(C)C)NC(=O)[C@@H](NC(=O)[C@H](CCCCN)NC(=O)[C@H](CCCNC(=N)N)NC(=O)[C@H](Cc1ccc(O)cc1)NC(=O)[C@H](CO)NC(=O)[C@H](CC(N)=O)NC(=O)[C@@H](NC(=O)[C@H](Cc1ccccc1)NC(=O)[C@@H](NC(=O)[C@H](C)NC(=O)[C@H](CC(=O)O)NC(=O)[C@H](C)NC(=O)[C@@H](N)Cc1ccc(O)cc1)[C@@H](C)CC)[C@@H](C)O)C(C)C)[C@@H](C)CC)C(=O)N[C@@H](CO)C(=O)N[C@@H](CCCNC(=N)N)C(=O)N[C@@H](CCC(N)=O)C(=O)N[C@@H](CCC(N)=O)C(N)=O [[Nle^27], [Nle^27]-hGRF(1-31)NH2, reference compound] (H-YADAIFTNSYRKVLGQLSARKLLQDI[Nle]SRQQ-NH2)
GH Released (mean ± (S.E.)) (Dose 1 × 10^-6 M): 2.89 (0.08) μg/mL | GH Released (mean ± (S.E.)) (Dose 1 × 10^-7 M): 2.78 (0.09) μg/mL | GH Released (mean ± (S.E.)) (Dose 1 × 10^-8 M): 3.11 (0.23) μg/mL | GH Released (mean ± (S.E.)) (Dose 1 × 10^-9 M): 3.16 (0.12) μg/mL | GH Released (mean ± (S.E.)) (Dose 1 × 10^-10 M): 1.93 (0.10) μg/mL | GH Released (mean ± (S.E.)) (Dose 1 × 10^-11 M): 0.85 (0.03) μg/mL | Dose Needed to Release 2.01 μg/ml of GH (ED50 value for hGRF) [1]: 0.11 nM | Maximum GH Released [1]: 3.16 µg/mL | Relative Maximum Activity (% of hGRF) [1]: 95% | GH release at dosages comparable to native hGRF (referring to Table 1): induced GH release in dosages comparable to those for native hGRF | Potency: (ED50 of hGRF)/(Dose required to give same response as ED50 of hGRF) (relative to hGRF(1-44)-NH2 = 100): 291%

From patent US4801456A, “Growth hormone-releasing factor analogs” (International Minerals & Chemical Corp., priority 1987, dated 1989)
